Laboratory results published in article PMC5078655.
These are yes or no findings as the source states them, for the method shown. Binding seen in cells or lysates may run through a third protein. Some binding calls cover weakened binding; strength is not graded here.

Protein sequences, listed by entry. Tags and fused reporters are not part of them. Residues count along the entry.
UniProt Q15848, residues 19-244: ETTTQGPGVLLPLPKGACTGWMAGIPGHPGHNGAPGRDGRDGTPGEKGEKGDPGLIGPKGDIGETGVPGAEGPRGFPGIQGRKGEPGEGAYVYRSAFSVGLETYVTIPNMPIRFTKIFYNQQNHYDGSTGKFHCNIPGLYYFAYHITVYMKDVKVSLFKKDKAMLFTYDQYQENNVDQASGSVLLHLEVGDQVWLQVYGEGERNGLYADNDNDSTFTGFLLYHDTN
UniProt Q04206: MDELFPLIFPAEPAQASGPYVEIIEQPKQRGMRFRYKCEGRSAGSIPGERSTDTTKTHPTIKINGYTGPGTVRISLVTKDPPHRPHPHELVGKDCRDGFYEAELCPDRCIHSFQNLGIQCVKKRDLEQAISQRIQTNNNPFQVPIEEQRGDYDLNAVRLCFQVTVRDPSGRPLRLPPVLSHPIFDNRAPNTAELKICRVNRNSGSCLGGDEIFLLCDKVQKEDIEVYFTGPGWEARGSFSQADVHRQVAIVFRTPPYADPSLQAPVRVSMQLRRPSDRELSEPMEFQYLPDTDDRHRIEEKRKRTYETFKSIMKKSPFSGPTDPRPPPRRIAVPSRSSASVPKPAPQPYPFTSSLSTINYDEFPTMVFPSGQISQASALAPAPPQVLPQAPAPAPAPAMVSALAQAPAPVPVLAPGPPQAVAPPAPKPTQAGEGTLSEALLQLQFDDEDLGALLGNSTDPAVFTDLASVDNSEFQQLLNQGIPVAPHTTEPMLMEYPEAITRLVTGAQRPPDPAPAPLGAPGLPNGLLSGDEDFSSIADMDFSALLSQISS

Target: adiponectin (human (endogenous in human cardiomyocytes)) (UniProt Q15848)
Test: co-IP; 300 μg nuclear protein from human cardiomyocytes (with or without ET-1 for 1 h); immunoprecipitated with antibodies against adiponectin or control mouse IgG at 4°C overnight, protein A/G-Sepharose beads, washed three times with IP buffer; immunoblotted for p65, PPARα and adiponectin

For p65 (from UniProt Q04206 1-551), the binding was “binds”.
